Source: patent publication US20130065760A1, “Substituted Pyridines Having Herbicidal Action” (BASF SE, priority 2010, published 2013)
Some entries share one result that the patent states for a list of compounds.

Key:
AVEFA = test: greenhouse experiment, post-emergence treatment, herbicidal activity; assay type: in vivo, Avena fatua; conditions: post-emergence method, application rate 3 kg/ha, scale from 0 to 100
SETFA = test: as above; assay type: in vivo, Setaria faberi; conditions: post-emergence method, application rate 3 kg/ha, scale from 0 to 100

O=c1c(-c2cccc(C3=NOCC3)c2C(F)(F)F)c(O)c2ncccc2n1CC(F)F [I-1, 1-(2,2-difluoroethyl)-3-[3-(4,5-dihydroisoxazol-3-yl)-2-(trifluoromethyl)phenyl]-4-hydroxy-1,5-naphthyridin-2-one]
herbicidal activity against AVEFA (AVEFA): very good (a very good herbicidal activity is given at values of at least 85)
herbicidal activity against SETFA (SETFA): very good (a very good herbicidal activity is given at values of at least 85)
